The test system of the data set is MoAb 14D7. The experiment in a line: Noncompetitive nanopeptamer lateral-flow assay for molinate (carbon black-labeled avidin complexed to pA). The class given is binding.

Each structure is given as a SMILES string.

As to `CCSC(=O)N1CCCCCC1` [Molinate], the “Lowest molinate concentration detectable in spiked runoff water samples” value (lateral flow, runoff water samples from agricultural areas, all samples) is 2.5 ng/mL. Moreover, under “molinate, 2.5 vs 32 ng/mL”, the “Improved sensitivity of the noncompetitive over the competitive lateral flow assay” value is on record as 10 fold. Further, under “noncompetitive lateral flow, buffer, four independent observers, three repetitions”, the “Analyte concentration causing a visible test line over the background” value was 2.5 ng/mL. Further, the “Matrix interference in lateral flow assay” value (ten runoff water samples of Uruguay spiked with 0, 2.5, 5 and 20 ng/mL molinate, four observers) was “did not interfere with assay sensitivity”.

(Values after patent US10101324B2, “Non-competitive immunoassays to detect small molecules using nanopeptamers” (priority 2012, dated 2018).)
